{"source": "patent US20110217412A1", "about": "“CHOLESTEROL LOWERING SUPPLEMENT AND LOW CHOLESTEROL EGG PRODUCED BY USING THE SAME” (JINIS BIOPHARMACEUTICALS CO., priority 2004, published 2011)", "tested_on": "ISA brown hens", "assay": "Egg laying performance of hens fed supplemented diet (egg weight, egg production)", "assay_type": "in vivo", "details": "summary of the Examples", "description": "Healthy ISA brown hens, 45-week old, were assigned randomly to each dietary group (control group, 8 birds; experimental group, 6 birds each). Each bird was placed in an individual cage in an environmentally controlled room (25° C., 50% relative humidity, 16L:8D). The hens were allowed for 2 weeks in which to adapt to the feed with no additives and the housing. Control birds were fed a commercial diet based on corn and soybean meal (Table 1), while birds in experimental groups were fed diets supplemented with 0.003 or 0.03% of compactin (Sigma Aldrich Korea) for 6 weeks. Feed and water were provided ad libitum throughout the experiment. Feed consumption, egg production and egg weight were recorded daily. Egg production was expressed as percent hen day production; (100×number of eggs laid)/(number of hens×days).\nThe effects of 0.003% or 0.03% compactin on the laying performance of 45-week old ISA brown hens were investigated (Table 2). Egg weight was maintained at more than 60 grams after 6 weeks of oral administrations of compactin at both doses. […] Maintenance of laying performance with compactin feeding is of contrast to the previous art in which atorvastatin reduced egg production down to 70% after feeding for 5-week.\nEgg production and yolk cholesterol analysis was performed with 0.003 and 0.03% pravastatin administered group with the same procedure as described in Example 1 above. […]", "note": "Some of these results come from one statement about several compounds together."}
{"substance": "pravastatin", "values": [{"measurement": "Reduction rates in the production of eggs", "result": "at most 5%"}]}
